The list does not hold the whole screen: it gathers tests that were run many times, whatever their T/C, doses with no T/C, and many T/C values between a quarter and a half above the control. Further doses and runs are listed elsewhere. T/C is the treated group as % of the vehicle group. Some entries give survivors of the animals treated and no T/C: the source holds a T/C of zero for them, seemingly a mark for toxic or unscored doses. Some survivor counts are full or nearly so, which does not show that the dose was tolerated: survival well below the control is almost never listed, so the zero probably covers shortened survival too. Counts of survivors are from the toxicity check (mostly the fifth day) where no day follows; animals may have died later. Schedule codes are those of the source, read here as Q, the interval in days (D) or hours (H), X, the number of doses. Some entries hold several experiments; their values stand side by side, smallest first. For survival time, this PubChem deposit counts one and a half times the control or more as active, and values a quarter to a half above the control carry no call in these data; other NCI protocols may use other cut-offs. Some T/C values carry the count of animals alive at the toxicity check (mostly the fifth day); where none is given, no animal had died by that day.
Test system: L1210 leukemia ip in BDF1 mice, survival T/C
Experiment: NCI In Vivo Anticancer Drug Screen. Data for tumor model L1210 Leukemia (intraperitoneal) in B6D2F1 (BDF1) mice
Details: higher T/C = longer survival

**Q.** `N/C(=N\O)c1cn(C2OC(CO)C(O)C2O)c2ncnc(N)c12` (configuration not stated) was tested. Which T/C (T/C endpoint: mean survival time, dose: 0.37 mg/kg/injection, schedule: Q01DX009 (ip), vehicle: saline) did it give?
**A.** 125 % of control

**Q.** What about the T/C (T/C endpoint: mean survival time, dose: 0.39 mg/kg/injection, schedule: Q01DX005 (ip), vehicle: saline) of the same compound?
**A.** 130 % of control

**Q.** What about the T/C (T/C endpoint: mean survival time, dose: 0.5 mg/kg/injection, schedule: Q01DX009 (ip), vehicle: saline) of the same compound?
**A.** 128 % of control

**Q.** And the T/C (T/C endpoint: mean survival time, dose: 0.5 mg/kg/injection, schedule: Q03HX008 (ip), vehicle: saline)?
**A.** 128 % of control

**Q.** And the T/C (T/C endpoint: mean survival time, dose: 0.5 mg/kg/injection, schedule: Q03HX016 (ip), vehicle: saline)?
**A.** 134 % of control

**Q.** What about the T/C (T/C endpoint: mean survival time, dose: 0.5 mg/kg/injection, schedule: Q03HX024 (ip), vehicle: saline, evaluated on day 30) of the same compound?
**A.** 142 % of control

**Q.** What about the T/C (T/C endpoint: mean survival time, dose: 0.5 mg/kg/injection, schedule: Q03HX024 (ip), vehicle: saline, evaluated on day 60) of the same compound?
**A.** 130 % of control

**Q.** And the T/C (T/C endpoint: mean survival time, dose: 0.57 mg/kg/injection, schedule: Q01DX009 (ip), vehicle: saline)?
**A.** 127 % of control

**Q.** What about the T/C (T/C endpoint: mean survival time, dose: 0.85 mg/kg/injection, schedule: Q01DX009 (ip), vehicle: saline) of the same compound?
**A.** 138 % of control

**Q.** And the T/C (T/C endpoint: mean survival time, dose: 1.0 mg/kg/injection, schedule: Q01DX005 (ip), vehicle: saline)?
**A.** 132 % of control

**Q.** What about the T/C (T/C endpoint: mean survival time, dose: 1.0 mg/kg/injection, schedule: Q01DX009 (ip), vehicle: saline, evaluated on day 30) of the same compound?
**A.** 142, 146, 149 % of control

**Q.** What about the T/C (T/C endpoint: mean survival time, dose: 1.0 mg/kg/injection, schedule: Q01DX009 (ip), vehicle: saline, evaluated on day 60) of the same compound?
**A.** 140 % of control

**Q.** And the T/C (T/C endpoint: mean survival time, dose: 1.0 mg/kg/injection, schedule: Q01DX015 (ip), vehicle: carboxymethylcellulose (CMC))?
**A.** 142 % of control

**Q.** What about the T/C (T/C endpoint: mean survival time, dose: 1.0 mg/kg/injection, schedule: Q03HX016 (ip), vehicle: saline) of the same compound?
**A.** 138 % of control

**Q.** And the T/C (T/C endpoint: mean survival time, dose: 1.0 mg/kg/injection, schedule: Q03HX024 (ip), vehicle: saline)?
**A.** 139 % of control

**Q.** And the T/C (T/C endpoint: mean survival time, dose: 1.8 mg/kg/injection, schedule: Q01DX009 (ip), vehicle: saline)?
**A.** 141 % of control

**Q.** What about the T/C (T/C endpoint: mean survival time, dose: 1.8 mg/kg/injection, schedule: Q01DX015 (ip), vehicle: carboxymethylcellulose (CMC)) of the same compound?
**A.** 141 % of control

**Q.** And the T/C (T/C endpoint: mean survival time, dose: 2.0 mg/kg/injection, schedule: Q01DX005 (ip), vehicle: saline)?
**A.** 144 % of control

**Q.** What about the T/C (T/C endpoint: mean survival time, dose: 2.0 mg/kg/injection, schedule: Q01DX009 (ip), vehicle: saline, evaluated on day 30) of the same compound?
**A.** 149 % of control

**Q.** And the T/C (T/C endpoint: mean survival time, dose: 2.0 mg/kg/injection, schedule: Q01DX009 (ip), vehicle: saline, evaluated on day 60)?
**A.** 138 % of control

**Q.** What about the T/C (T/C endpoint: mean survival time, dose: 2.0 mg/kg/injection, schedule: Q03HX008 (ip), vehicle: saline) of the same compound?
**A.** 148 % of control

**Q.** What about the T/C (T/C endpoint: mean survival time, dose: 2.0 mg/kg/injection, schedule: Q03HX016 (ip), vehicle: saline) of the same compound?
**A.** 141 % of control

**Q.** And the T/C (T/C endpoint: mean survival time, dose: 2.0 mg/kg/injection, schedule: Q04DX003 (ip), vehicle: saline)?
**A.** 136 % of control

**Q.** What about the T/C (T/C endpoint: mean survival time, dose: 3.0 mg/kg/injection, schedule: Q01DX015 (ip), vehicle: carboxymethylcellulose (CMC)) of the same compound?
**A.** 142 % of control

**Q.** And the T/C (T/C endpoint: mean survival time, dose: 3.13 mg/kg/injection, schedule: Q01DX009 (ip), vehicle: saline)?
**A.** 145 % of control

**Q.** What about the T/C (T/C endpoint: mean survival time, dose: 4.0 mg/kg/injection, schedule: Q01DX009 (ip), vehicle: saline) of the same compound?
**A.** 137 % of control

**Q.** And the survivor count (T/C endpoint: mean survival time, dose: 4.0 mg/kg/injection, schedule: Q03HX008 (ip), vehicle: saline)?
**A.** 8 of 10

**Q.** And the survivor count (T/C endpoint: mean survival time, dose: 4.0 mg/kg/injection, schedule: Q03HX016 (ip), vehicle: saline)?
**A.** 8 of 10

**Q.** And the survivor count (T/C endpoint: mean survival time, dose: 4.0 mg/kg/injection, schedule: Q03HX024 (ip), vehicle: saline)?
**A.** 1 of 6 and 6 of 10

**Q.** What about the T/C (T/C endpoint: mean survival time, dose: 4.0 mg/kg/injection, schedule: Q04DX003 (ip), vehicle: saline, evaluated on day 30) of the same compound?
**A.** 135 % of control

**Q.** And the T/C (T/C endpoint: mean survival time, dose: 4.0 mg/kg/injection, schedule: Q04DX003 (ip), vehicle: saline, evaluated on day 60)?
**A.** 149 % of control

**Q.** What about the T/C (T/C endpoint: mean survival time, dose: 6.6 mg/kg/injection, schedule: Q01DX001 (ip), vehicle: carboxymethylcellulose (CMC)) of the same compound?
**A.** 132 % of control

**Q.** And the T/C (T/C endpoint: mean survival time, dose: 6.6 mg/kg/injection, schedule: Q01DX001 (ip), vehicle: saline)?
**A.** 143 % of control

**Q.** What about the T/C (T/C endpoint: mean survival time, dose: 8.0 mg/kg/injection, schedule: Q01DX009 (ip), vehicle: saline) of the same compound?
**A.** 142 % of control

**Q.** And the T/C (T/C endpoint: mean survival time, dose: 8.0 mg/kg/injection, schedule: Q08DX002 (ip), vehicle: saline)?
**A.** 129 % of control

**Q.** And the T/C (T/C endpoint: mean survival time, dose: 10.0 mg/kg/injection, schedule: Q01DX001 (ip), vehicle: carboxymethylcellulose (CMC))?
**A.** 134 and 148 % of control

**Q.** And the T/C (T/C endpoint: mean survival time, dose: 10.0 mg/kg/injection, schedule: Q01DX001 (ip), vehicle: saline)?
**A.** 143 % of control

**Q.** What about the T/C (T/C endpoint: mean survival time, dose: 12.5 mg/kg/injection, schedule: Q01DX001 (ip), vehicle: other) of the same compound?
**A.** 139 % of control

**Q.** And the T/C (T/C endpoint: mean survival time, dose: 12.5 mg/kg/injection, schedule: Q01DX001 (ip), vehicle: water)?
**A.** 136 % of control

**Q.** What about the survivor count (T/C endpoint: mean survival time, dose: 12.5 mg/kg/injection, schedule: Q01DX009 (ip), vehicle: saline) of the same compound?
**A.** 6 of 6

**Q.** What about the T/C (T/C endpoint: mean survival time, dose: 15.0 mg/kg/injection, schedule: Q01DX001 (ip), vehicle: carboxymethylcellulose (CMC)) of the same compound?
**A.** 143 % of control

**Q.** And the T/C (T/C endpoint: mean survival time, dose: 15.0 mg/kg/injection, schedule: Q01DX001 (ip), vehicle: saline)?
**A.** 148 % of control

**Q.** And the T/C (T/C endpoint: mean survival time, dose: 16.0 mg/kg/injection, schedule: Q04DX003 (ip), vehicle: saline)?
**A.** 147 % of control

**Q.** What about the T/C (T/C endpoint: mean survival time, dose: 16.0 mg/kg/injection, schedule: Q08DX002 (ip), vehicle: saline) of the same compound?
**A.** 137 % of control

**Q.** What about the T/C (T/C endpoint: mean survival time, dose: 20.0 mg/kg/injection, schedule: Q01DX001 (ip), vehicle: carboxymethylcellulose (CMC)) of the same compound?
**A.** 135 % of control

**Q.** What about the survivor count (T/C endpoint: mean survival time, dose: 20.0 mg/kg/injection, schedule: Q01DX009 (ip), vehicle: saline) of the same compound?
**A.** 2 of 6

**Q.** What about the survivor count (T/C endpoint: mean survival time, dose: 25.0 mg/kg/injection, schedule: Q01DX009 (ip), vehicle: saline) of the same compound?
**A.** 5 of 6

**Q.** What about the T/C (T/C endpoint: mean survival time, dose: 32.0 mg/kg/injection, schedule: Q01DX001 (ip), vehicle: saline) of the same compound?
**A.** 145 % of control [7 of 10 alive]

**Q.** And the T/C (T/C endpoint: mean survival time, dose: 32.0 mg/kg/injection, schedule: Q04DX003 (ip), vehicle: saline, evaluated on day 30)?
**A.** 129 % of control

**Q.** What about the T/C (T/C endpoint: mean survival time, dose: 32.0 mg/kg/injection, schedule: Q04DX003 (ip), vehicle: saline, evaluated on day 60) of the same compound?
**A.** 140 % of control

**Q.** What about the T/C (T/C endpoint: mean survival time, dose: 40.0 mg/kg/injection, schedule: Q01DX001 (ip), vehicle: carboxymethylcellulose (CMC)) of the same compound?
**A.** 137 % of control

**Q.** And the survivor count (T/C endpoint: mean survival time, dose: 50.0 mg/kg/injection, schedule: Q01DX009 (ip), vehicle: saline)?
**A.** 0 of 6

**Q.** And the survivor count (T/C endpoint: mean survival time, dose: 80.0 mg/kg/injection, schedule: Q01DX001 (ip), vehicle: carboxymethylcellulose (CMC))?
**A.** 0 of 4

**Q.** What about the survivor count (T/C endpoint: mean survival time, dose: 100.0 mg/kg/injection, schedule: Q01DX001 (ip), vehicle: carboxymethylcellulose (CMC)) of the same compound?
**A.** 0 of 4

**Q.** And the survivor count (T/C endpoint: mean survival time, dose: 100.0 mg/kg/injection, schedule: Q01DX001 (ip), vehicle: other)?
**A.** 0 of 10

**Q.** What about the survivor count (T/C endpoint: mean survival time, dose: 100.0 mg/kg/injection, schedule: Q01DX001 (ip), vehicle: water) of the same compound?
**A.** 1 of 10

**Q.** And the survivor count (T/C endpoint: mean survival time, dose: 100.0 mg/kg/injection, schedule: Q01DX009 (ip), vehicle: saline)?
**A.** 0 of 6

**Q.** And the survivor count (T/C endpoint: mean survival time, dose: 200.0 mg/kg/injection, schedule: Q01DX001 (ip), vehicle: carboxymethylcellulose (CMC))?
**A.** 0 of 4

**Q.** And the survivor count (T/C endpoint: mean survival time, dose: 400.0 mg/kg/injection, schedule: Q01DX001 (ip), vehicle: carboxymethylcellulose (CMC))?
**A.** 0 of 4

**Q.** What about the T/C (T/C endpoint: median survival time, dose: 1.0 mg/kg/injection, schedule: Q01DX009 (ip), vehicle: saline) of the same compound?
**A.** 137 % of control

**Q.** What about the T/C (T/C endpoint: median survival time, dose: 2.0 mg/kg/injection, schedule: Q01DX009 (ip), vehicle: saline) of the same compound?
**A.** 133 [5 of 6 alive] and 137 % of control

**Q.** And the T/C (T/C endpoint: median survival time, dose: 4.0 mg/kg/injection, schedule: Q01DX009 (ip), vehicle: saline)?
**A.** 125 and 133 % of control
